Where a name gives a salt, the structure may show the parent alone.
System: iPSC-CMs, iPSC-ECs and HUVECs phenotypes
Experiment: ToxPi 2.0 integration of POD values and physicochemical descriptors
Design: species or system human
Conditions: HUVECs, 18 hr; scaled from POD
Excerpt: Phenotypic responses were quantitatively assessed using concentration–response modeling as detailed elsewhere ([Sirenko et al. 2017]). Briefly, phenotypic readouts were normalized to vehicle controls and fit to a four-parameter logistic model in R studio software (version 3.1.1; R Development Core Team). Following EPA guidance on dose–response modeling, a cutoff of one standard deviation across means of vehicle control (i.e., 0.5% vol/vol DMSO in cell culture media) wells was applied to determine the point-of-departure (POD) values ([U.S. EPA 2012]). In the absence of a concentration–response, the highest tested concentration (i.e., 100μM ) was assigned as “no observable adverse effect level.” The concentration–response assessment R script, as well as templates for vehicle and concentration–response data, are available as a supplement to Sirenko et al. ([2017]). The ability of physicochemical properties to predict differences in PODs were evaluated by multiregression and mixed-effects modeling using R.
POD values were then integrated using ToxPi 2.0 ([Marvel et al. 2018]) software. In ToxPi, each slice is representative of cell type– and time-point–specific phenotypes. The area of each slice is proportional to the relative value (e.g., bioactivity or physicochemical descriptor value) of the chemical within the data set. ToxPi scores were used to rank PCBs and their metabolites according to their overall bioactivity and to determine variability in total observable biological responses and chemical characteristics for each major metabolite class and chlorination status (mono-, hexa-chlorinated). Additional visualizations such as dumbbell and principal components analysis plots were generated in R Studio (version 1.1.456; R version 3.5.1; R Development Core Team) using the ggplot2 package.

SMILES	huvec.mtl.18hr ToxPi	huvec.tlps.18hr ToxPi	huvec.tta.18hr ToxPi	huvec.ttl.18hr ToxPi
Oc1cccc(-c2ccc(Cl)cc2)c1 [3'-OH PCB3]	1.00	0.87	0.66	0.52
O=S(=O)(O)Oc1cccc(-c2ccc(Cl)cc2)c1 [3'-yl PCB 3 sulfate]	0.42	0.00	0.00	0.00
O=S(=O)(O)Oc1cc(-c2ccccc2)ccc1Cl [3-yl PCB 3 sulfate]	0.48	0.08	0.00	0.10

Same assay, conditions: HUVECs, 24 hr; scaled from POD

SMILES	huvec.cyto.24hr ToxPi	huvec.mito.24hr ToxPi	huvec.mitoint.24hr ToxPi	huvec.nma.24hr ToxPi
Oc1cccc(-c2ccc(Cl)cc2)c1 [3'-OH PCB3]	0.47	0.55	0.17	1.00
O=S(=O)(O)Oc1cccc(-c2ccc(Cl)cc2)c1 [3'-yl PCB 3 sulfate]	0.00	0.00	0.00	0.00
O=S(=O)(O)Oc1cc(-c2ccccc2)ccc1Cl [3-yl PCB 3 sulfate]	0.00	0.00	0.00	0.00

Same assay, conditions: HUVECs, 24 hrs; scaled from POD

SMILES	huvec.tc.24hrs ToxPi
Oc1cccc(-c2ccc(Cl)cc2)c1 [3'-OH PCB3]	0.47
O=S(=O)(O)Oc1cccc(-c2ccc(Cl)cc2)c1 [3'-yl PCB 3 sulfate]	0.00
O=S(=O)(O)Oc1cc(-c2ccccc2)ccc1Cl [3-yl PCB 3 sulfate]	0.00

Same assay, conditions: iPSC-CM

SMILES	cm.amp.avg.24hrs ToxPi	cm.amp.avg.90min ToxPi	cm.amp.cv.24hrs ToxPi	cm.amp.cv.90min ToxPi	cm.bpm.24hrs ToxPi	cm.bpm.90min ToxPi	cm.cam.24hrs ToxPi	cm.cam.90min ToxPi	cm.decay.rise.24hrs ToxPi	cm.decay.rise.90min ToxPi
Oc1cccc(-c2ccc(Cl)cc2)c1 [3'-OH PCB3]	0.45	0.69	0.38	0.27	0.46	0.88	0.26	0.76	0.82	0.48
O=S(=O)(O)Oc1cccc(-c2ccc(Cl)cc2)c1 [3'-yl PCB 3 sulfate]	0.00	0.00	0.00	0.00	0.00	0.0742	0.00	0.00	0.00	0.00
O=S(=O)(O)Oc1cc(-c2ccccc2)ccc1Cl [3-yl PCB 3 sulfate]	0.00	0.10	0.00	0.00	0.00	0.00	0.00	0.00	0.00	0.00

Same assay, conditions: iPSC-CM

SMILES	cm.mii.24hrs ToxPi	cm.mii.90min ToxPi	cm.mito.24hrs ToxPi	cm.mito.90min ToxPi	cm.spacing.cv.24hrs ToxPi	cm.spacing.cv.90min ToxPi	cm.tc.24hrs ToxPi	cm.tc.90min ToxPi
Oc1cccc(-c2ccc(Cl)cc2)c1 [3'-OH PCB3]	0.39	0.39	0.42	0.77	0.80	0.08	0.43	0.78
O=S(=O)(O)Oc1cccc(-c2ccc(Cl)cc2)c1 [3'-yl PCB 3 sulfate]	0.00	0.04	0.00	0.00	0.00	0.00	0.00	0.00
O=S(=O)(O)Oc1cc(-c2ccccc2)ccc1Cl [3-yl PCB 3 sulfate]	0.39	0.00	0.00	0.00	0.00	0.00	0.00	0.00

Same assay, conditions: iPSC-EC tube formation, 18 hr; scaled from POD

SMILES	endo.mtl.18hr ToxPi	endo.tlps.18hr ToxPi	endo.tta.18hr ToxPi	endo.ttl.18hr ToxPi
Oc1cccc(-c2ccc(Cl)cc2)c1 [3'-OH PCB3]	0.59	0.73	0.48	0.49
O=S(=O)(O)Oc1cccc(-c2ccc(Cl)cc2)c1 [3'-yl PCB 3 sulfate]	0.54	0.15	0.20	0.22
O=S(=O)(O)Oc1cc(-c2ccccc2)ccc1Cl [3-yl PCB 3 sulfate]	0.00	0.43	0.00	0.00

Same assay, conditions: iPSC-EC, 24 hr; scaled from POD

SMILES	endo.cyto.24hr ToxPi	endo.mito.24hr ToxPi	endo.mitoint.24hr ToxPi	endo.nma.24hr ToxPi	endo.tc.24hrs ToxPi
Oc1cccc(-c2ccc(Cl)cc2)c1 [3'-OH PCB3]	0.14	0.14	0.00	0.41	0.11
O=S(=O)(O)Oc1cccc(-c2ccc(Cl)cc2)c1 [3'-yl PCB 3 sulfate]	0.00	0.00	0.00	0.00	0.00
O=S(=O)(O)Oc1cc(-c2ccccc2)ccc1Cl [3-yl PCB 3 sulfate]	0.00	0.00	0.00	0.00	0.00

Source: PMC7377239, “Cardiovascular Effects of Polychlorinated Biphenyls and Their Major Metabolites” (Environmental Health Perspectives, 2020)
